In US20040138169A1, “Composition and use of substances for stabilising amino acids containing sulphur” (priority 2001, published 2004):
Some entries share one result that the patent states for a list of compounds.

System: HCY-concentration in whole blood
Experiment: Stabilization of the homocysteine (HCY) concentration in withdrawn whole blood stored in monovettes with stabilizer
Assay type: cell-based
Conditions: room temperature
Experimental: Material Used and Processes
The following inhibitors of methyl transferase or S-adenosylhomocysteine hydrolase have been tested
The effectiveness of the inhibitors have been tested in combination with the following acids:
The compositions of further reagents have been:
Mixture A: 5(4)-AMCA (5.2 mg) and DEOA (3.2 mg), dissolved in 500 μl phosphate buffer.
Composition of the buffer for mixture A:
All other substances have been dissolved in water.
Blood Withdrawal and Treatment of Samples
Corresponding amounts of stabilizers have been provided in EDTA- or Na-heparin-monovettes for each Example or Comparative Example (see Table 1). The blood withdrawal has been carried out in monovettes with and without stabilizers. For the control value, the monovettes have been centrifuged within 30 minutes after withdrawal.

Row | Compound | stabilization of homocysteine (duration)
1 | O=C1O[C@H]([C@@H](O)CO)C(O)=C1O [Cmp.-Ex. 2, ascorbic acid] | over 40 hours
2 | O=C(O)/C=C/C(=O)O [Cmp.-Ex. 3, fumaric acid] | over 40 hours
